# Measurements as given in the supplement of paper PMC8728848.
# Some of the results follow.
# Assays:
# Test in all cases: glycan array binding signal (z-score within array); higher = stronger binding
# Details in all cases: glycan notation: IUPAC condensed, linker removed
# [1] = molecular target: Man(a1-2)Man(a1-3)[Man(a1-2)Man(a1-6)]Man(a1-6)[Man(a1-2)Man(a1-2)Man(a1-3)]Man
# How it was run: (§1)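 Glycan array data came from 3228 arrays in the Consortium for Functional Glycomics database, and only arrays with an available protein sequence were kept. Glycan names were put into IUPAC-condensed notation, and columns mapping to the same glycan were averaged. The binding signal is a within-array Z-score, averaged across arrays of one protein sequence run at different concentrations or buffers and across linkers. A negative Z-score can be read as non-binding.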
# [2] = molecular target: Man(a1-2)Man(a1-3)[Man(a1-2)Man(a1-6)]Man(a1-6)[Man(a1-2)Man(a1-2)Man(a1-3)]Man(b1-4)GlcNAc(b1-4)GlcNAc
# How it was run: as §1
# [3] = molecular target: Man(a1-2)Man(a1-3)[Man(a1-6)]Man(a1-6)[Man(a1-2)Man(a1-3)]Man(b1-4)GlcNAc(b1-4)GlcNAc
# How it was run: as §1
# [4] = molecular target: Man(a1-2)Man(a1-6)[Man(a1-3)]Man(a1-6)[Man(a1-2)Man(a1-2)Man(a1-3)]Man
# How it was run: as §1
# [5] = molecular target: Man(a1-2)Man(a1-6)[Man(a1-3)]Man(a1-6)[Man(a1-2)Man(a1-2)Man(a1-3)]Man(b1-4)GlcNAc(b1-4)GlcNAc
# How it was run: as §1
# Man(a1-3)[Man(a1-6)]Man = molecular target: Man(a1-3)[Man(a1-6)]Man
# How it was run: as §1
# [6] = molecular target: Man(a1-3)[Man(a1-6)]Man(a1-6)[Man(a1-2)Man(a1-3)]Man(b1-4)GlcNAc(b1-4)GlcNAc
# How it was run: as §1
# [7] = molecular target: Man(a1-3)[Man(a1-6)]Man(a1-6)[Man(a1-3)]Man
# How it was run: as §1
# [8] = molecular target: Man(a1-3)[Man(a1-6)]Man(a1-6)[Man(a1-3)]Man(b1-4)GlcNAc(b1-4)GlcNAc
# How it was run: as §1
# [9] = molecular target: Man(a1-3)[Man(a1-6)]Man(b1-4)GlcNAc(b1-4)GlcNAc
# How it was run: as §1
# [10] = molecular target: Man(a1-3)[Man(a1-6)]Man(b1-4)GlcNAc(b1-4)[Fuc(a1-6)]GlcNAc
# How it was run: as §1
# Man(a1-6)Man = molecular target: Man(a1-6)Man
# How it was run: as §1
# Man(b1-4)GlcNAc = molecular target: Man(b1-4)GlcNAc
# How it was run: as §1
# MurNAc(b1-4)GlcNAc = molecular target: MurNAc(b1-4)GlcNAc
# How it was run: as §1
# Neu5Ac(a2-3)Gal = molecular target: Neu5Ac(a2-3)Gal
# How it was run: as §1
# [11] = molecular target: Neu5Ac(a2-3)Gal(b1-3)GalNAc
# How it was run: as §1
# [12] = molecular target: Neu5Ac(a2-3)Gal(b1-3)GalNAc(b1-3)Gal(a1-4)Gal(b1-4)Glc
# How it was run: as §1
# [13] = molecular target: Neu5Ac(a2-3)Gal(b1-3)GalNAc(b1-4)[Neu5Ac(a2-3)]Gal(b1-4)Glc
# How it was run: as §1
# [14] = molecular target: Neu5Ac(a2-3)Gal(b1-3)GalNAc(b1-4)[Neu5Ac(a2-8)Neu5Ac(a2-3)]Gal(b1-4)Glc
# How it was run: as §1
# [15] = molecular target: Neu5Ac(a2-3)Gal(b1-3)GalNAc6S
# How it was run: as §1
# [16] = molecular target: Neu5Ac(a2-3)Gal(b1-3)GlcNAc
# How it was run: as §1
# [17] = molecular target: Neu5Ac(a2-3)Gal(b1-3)GlcNAc(b1-2)Man
# How it was run: as §1
# [18] = molecular target: Neu5Ac(a2-3)Gal(b1-3)GlcNAc(b1-2)Man(a1-3)[GlcNAc(b1-4)][Neu5Ac(a2-3)Gal(b1-3)GlcNAc(b1-2)Man(a1-6)]Man(b1-4)GlcNAc(b1-4)GlcNAc
# How it was run: as §1
# [19] = molecular target: Neu5Ac(a2-3)Gal(b1-3)GlcNAc(b1-2)Man(a1-3)[Neu5Ac(a2-3)Gal(b1-3)GlcNAc(b1-2)Man(a1-6)]Man(b1-4)GlcNAc(b1-4)GlcNAc
# How it was run: as §1
# [20] = molecular target: Neu5Ac(a2-3)Gal(b1-3)GlcNAc(b1-3)Gal(b1-3)GlcNAc
# How it was run: as §1
# [21] = molecular target: Neu5Ac(a2-3)Gal(b1-3)GlcNAc(b1-3)Gal(b1-4)GlcNAc
# How it was run: as §1
# [22] = molecular target: Neu5Ac(a2-3)Gal(b1-3)GlcNAc(b1-3)GalNAc
# How it was run: as §1
# [23] = molecular target: Neu5Ac(a2-3)Gal(b1-3)GlcNAc(b1-4)Gal(b1-4)Glc
# How it was run: as §1
# [24] = molecular target: Neu5Ac(a2-3)Gal(b1-3)GlcNAc(b1-6)GalNAc
# How it was run: as §1
# [25] = molecular target: Neu5Ac(a2-3)Gal(b1-3)GlcNAc6S
# How it was run: as §1
binder,measurement,setting,value
"CD4 (Rattus norvegicus), P05540 (protein) MCRGFSFRHLLPLLLLQLSKLLVVTQGSTSITAYKSEGESAEFSFPLNLGEESLQGELRWKAEKAPSSQSWITFSLKNQKVSVQKSTSNPKFQLSETLPLTLQIPQVSLQFAGSGNLTLTLDRGILYQEVNLVVMKVTQPDSNTLTCEVMGPTSPKMRLILKQENQEARVSRQEKVIQVQAPEAGVWQCLLSEGEEVKMDSKIQVLSKGLNSGGGSGGGTGGGDLAPQMLRELQETNAALQDVRELLRQQVKEITFLKNTVMECDACGLDRNLPPLAPLGPHPETLVKVKDAEDQLGARVGYIELDLNSGKILESFRPEERFPMMSTFKVLLCGAVLSRIDAGQEQLGRRIHYSQNDLVEYSPVTEKHLTDGMTVRELCSAAITMSDNTAANLLLTTIGGPKELTAFLHNMGDHVTRLDRWEPELNEAIPNDERDTTMPVAMATTLRKLLTGELLTLASRQQLIDWMEADKVAGPLLRSALPAGWFIADKSGAGERGSRGIIAALGPDGKPSRIVVIYTTGSQATMDERNRQIAEIGASLIKHW",glycan array binding signal (z-score),[1],0.438
same,glycan array binding signal (z-score),[2],-0.44
same,glycan array binding signal (z-score),[3],-0.933
same,glycan array binding signal (z-score),[4],1.05
same,glycan array binding signal (z-score),[5],-0.08
same,glycan array binding signal (z-score),Man(a1-3)[Man(a1-6)]Man,1.25
same,glycan array binding signal (z-score),[6],0.503
same,glycan array binding signal (z-score),[7],0.386
same,glycan array binding signal (z-score),[8],-0.353
same,glycan array binding signal (z-score),[9],-1.14
same,glycan array binding signal (z-score),[10],-0.602
same,glycan array binding signal (z-score),Man(a1-6)Man,-0.075
same,glycan array binding signal (z-score),Man(b1-4)GlcNAc,-1.87
same,glycan array binding signal (z-score),MurNAc(b1-4)GlcNAc,-1.28
same,glycan array binding signal (z-score),Neu5Ac(a2-3)Gal,0.495
same,glycan array binding signal (z-score),[11],-1.02
same,glycan array binding signal (z-score),[12],-0.046
same,glycan array binding signal (z-score),[13],-0.174
same,glycan array binding signal (z-score),[14],-1.09
same,glycan array binding signal (z-score),[15],-1.23
same,glycan array binding signal (z-score),[16],-0.771
same,glycan array binding signal (z-score),[17],-0.568
same,glycan array binding signal (z-score),[18],-0.328
same,glycan array binding signal (z-score),[19],-0.429
same,glycan array binding signal (z-score),[20],0.207
same,glycan array binding signal (z-score),[21],-0.644
same,glycan array binding signal (z-score),[22],-0.719
same,glycan array binding signal (z-score),[23],-1.28
same,glycan array binding signal (z-score),[24],0.017
same,glycan array binding signal (z-score),[25],-1.76

# Some of the entries so far, bar-delimited.
binder | measurement | setting | value
CD4 (Rattus norvegicus), P05540 (protein) MCRGFSFRHLLPLLLLQLSKLLVVTQGSTSITAYKSEGESAEFSFPLNLGEESLQGELRWKAEKAPSSQSWITFSLKNQKVSVQKSTSNPKFQLSETLPLTLQIPQVSLQFAGSGNLTLTLDRGILYQEVNLVVMKVTQPDSNTLTCEVMGPTSPKMRLILKQENQEARVSRQEKVIQVQAPEAGVWQCLLSEGEEVKMDSKIQVLSKGLNSGGGSGGGTGGGDLAPQMLRELQETNAALQDVRELLRQQVKEITFLKNTVMECDACGLDRNLPPLAPLGPHPETLVKVKDAEDQLGARVGYIELDLNSGKILESFRPEERFPMMSTFKVLLCGAVLSRIDAGQEQLGRRIHYSQNDLVEYSPVTEKHLTDGMTVRELCSAAITMSDNTAANLLLTTIGGPKELTAFLHNMGDHVTRLDRWEPELNEAIPNDERDTTMPVAMATTLRKLLTGELLTLASRQQLIDWMEADKVAGPLLRSALPAGWFIADKSGAGERGSRGIIAALGPDGKPSRIVVIYTTGSQATMDERNRQIAEIGASLIKHW | glycan array binding signal (z-score) | Man(a1-3)[Man(a1-6)]Man | 1.25
same | glycan array binding signal (z-score) | [21] | -0.644
